Measured values from PubChem BioAssay AID493014 (National Center for Advancing Translational Sciences (NCATS), 2011).
Some of the results follow. Shown are side measurements of this screen, not its main read-out; they come without a call. The list favours compounds with an active or inconclusive main result. Words in brackets tell the shape of the fitted curve; partial curves, single points and poor fits give uncertain potencies.

Assay: qHTS Assay to Find Inhibitors of Chronic Active B-Cell Receptor Signaling
Settings: ABC-DLBCL IkBa-CBG/CBR reporter, luminescence ratio (green luciferase fused to IkBa over red control in TMD8 lymphoma cells), 4 h
How it was run: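 Compounds up to 46 uM were incubated four hours with TMD8 cells whose green CBG68 luciferase is fused to IkappaBalpha; red CBR luminescence normalised the signal, and concentration-effect curves were fitted to fusion, red and ratio data.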

[1] = measured here: CBR red luminescence, cell number
[2] = measured here: IkBa-CBG green luminescence

Structure (SMILES) | AC50 [1] | AC50 [2]
C=CCNC(=S)Nc1cccc(N)c1 | 2.82 µM [rising, partial curve] | –
O=C(OC1CCCCC1)c1ccc(NC(=O)C2CCCCC2)cc1 | 5.17 µM [rising, single point] | –
COc1cccc(-c2sc3ccccc3c2-c2ccc(OCCN(C)C)cc2)c1 | 29.1 µM [falling, single point] | –
Cc1ccccc1CNC(=O)C(=O)NCCC1CCCCN1S(=O)(=O)c1cccs1 (stereo unspecified) | 16.4 µM [falling, partial curve, poor fit] | –
CCN(CC)Cc1cc(CCNC(=O)c2ccc(Cl)cc2)ccc1O | 0.116 µM [rising, full curve, poor fit] | –
CCOc1ncccc1C(=O)NNC(=O)c1csc(N2CCOCC2)n1 | 6.51 µM [rising, single point] | –
CCOC(=O)c1c(C)[nH]c(C)c1S(=O)(=O)N1CCC(C(=O)N2CCN(c3cccc(C)c3)C(C)C2)CC1 (stereo unspecified) | 25.1 µM [falling, single point] | –
COc1ccc(Nc2ncccc2C(=O)Nc2ccccc2)cc1 | 35.5 µM [falling, single point] | –
CCCCCC(=O)Nc1ccc2ccccc2c1 | 4.11 µM [rising, partial curve, poor fit] | –
O=C(Nc1ccc(-c2nc3cccnc3s2)cc1)c1ccc(Cl)nc1 | 0.1 µM [rising, full curve, poor fit] | –
Cc1ccc(NC(=O)CSc2ncnc3ccccc23)cc1S(=O)(=O)N1CCCCC1 | 18.4 µM [falling, partial curve] | –
COc1ccc(C(=O)Cn2nc(CNc3ccc(Br)cc3)[n+]3c2CCCCC3)cc1 | 5.62 µM [rising, partial curve, poor fit] | –
O=C1CC(N(Cc2ccc3c(c2)OCO3)C(=O)Nc2ccc(F)cc2)C(=O)N1c1ccccc1 (stereo unspecified) | 29.1 µM [falling, single point] | –
CC(c1ccco1)N(C(=O)c1cccc(S(=O)(=O)N(C)C)c1)c1ccccn1 (stereo unspecified) | 12.6 µM [rising, single point] | –
COc1ccc(C(=O)c2coc3ccc(O)cc23)cc1 | 1.58 µM [rising, partial curve, poor fit] | –
Cc1ccc(-n2c3nc(=O)[nH]c(=O)c-3cc3cc([N+](=O)[O-])ccc32)cc1 | 1.46 µM [falling, full curve, poor fit] | 6.51 µM [falling, single point]
COc1ccc(CNC(=O)NC(C)(C)c2cccc(C(C)(C)NC(=O)NCc3ccc(OC)cc3)c2)cc1 | 4.11 µM [falling, full curve] | –
COc1ccccc1C/C(N)=N/OC(=O)c1cccs1 | 12.6 µM [rising, single point] | –
O=C(Nc1cccc(Cl)c1Cl)c1cc(S(=O)(=O)N2CCCCC2)ccc1F | 5.62 µM [falling, single point] | –
COc1cc2cc(C(=O)N3CCN(c4ccccc4OC)CC3)[nH]c2cc1OC | 22.4 µM [rising, single point] | –

Ordered by formula weight (low to high): part of the list above.
Structure (SMILES) | AC50 [1] | AC50 [2]
C=CCNC(=S)Nc1cccc(N)c1 | 2.82 µM [rising, partial curve] | –
COc1ccc(C(=O)c2coc3ccc(O)cc23)cc1 | 1.58 µM [rising, partial curve, poor fit] | –
COc1ccccc1C/C(N)=N/OC(=O)c1cccs1 | 12.6 µM [rising, single point] | –
COc1ccc(Nc2ncccc2C(=O)Nc2ccccc2)cc1 | 35.5 µM [falling, single point] | –
O=C(OC1CCCCC1)c1ccc(NC(=O)C2CCCCC2)cc1 | 5.17 µM [rising, single point] | –
CCN(CC)Cc1cc(CCNC(=O)c2ccc(Cl)cc2)ccc1O | 0.116 µM [rising, full curve, poor fit] | –
CC(c1ccco1)N(C(=O)c1cccc(S(=O)(=O)N(C)C)c1)c1ccccn1 (stereo unspecified) | 12.6 µM [rising, single point] | –
O=C1CC(N(Cc2ccc3c(c2)OCO3)C(=O)Nc2ccc(F)cc2)C(=O)N1c1ccccc1 (stereo unspecified) | 29.1 µM [falling, single point] | –
COc1ccc(CNC(=O)NC(C)(C)c2cccc(C(C)(C)NC(=O)NCc3ccc(OC)cc3)c2)cc1 | 4.11 µM [falling, full curve] | –
CCOC(=O)c1c(C)[nH]c(C)c1S(=O)(=O)N1CCC(C(=O)N2CCN(c3cccc(C)c3)C(C)C2)CC1 (stereo unspecified) | 25.1 µM [falling, single point] | –

(cont.)

Structure (SMILES) | AC50 [1] | AC50 [2]
C/C=C\C=C\C(=O)Nc1cccc(C2=NOC3(C2)C[C@H](C(N)=O)N(C(=O)c2ccccc2C(=O)c2ccccc2)C3)c1 (stereo partly specified) | 22.4 µM [falling, single point] | –
O=C(CCNC(=O)c1ccc(Br)cc1)NNC(=O)c1ccccc1O | 23.1 µM [falling, single point] | –
COc1ccc(C(=O)c2ccc(N(C)C)cc2)c(OC)c1 | 0.112 µM [falling, full curve, poor fit] | –
CN(C)CCN(C(=O)c1ccccc1Cl)c1nc2c(Cl)cccc2s1 | 32.6 µM [falling, partial curve, poor fit] | –
COc1ccc(OC)c(S(=O)(=O)N2CCNCC2)c1 | 6.31 µM [rising, partial curve, poor fit] | –
CCOc1ccc(NC(=O)CCC(=O)n2nc(C)cc2C)cc1 | 18.4 µM [falling, single point] | –
COc1ccc(C(=O)/C(C#N)=N/Nc2cccc([N+](=O)[O-])c2)cc1 | 4.47 µM [rising, partial curve, poor fit] | –
COc1cc(/C=N/NC2=NC(C)(C)Cc3ccccc32)cc(OC)c1OC | 0.447 µM [rising, full curve] | –
COc1ccc(NC(=O)CN(C)C(=O)c2cc3c(s2)CCC3)cc1 | 14.6 µM [rising, partial curve] | –
N#C/C(=C\c1ccccc1OCc1ccc(C(=O)O)cc1)C(=O)Nc1ccc(O)cc1 | 15.8 µM [falling, partial curve, poor fit] | –
CCCNC(=O)c1ccc2c(c1)ncn2-c1ccccc1OC | 20.6 µM [falling, partial curve] | –
COC(=O)c1sc(N)c(C(=O)OC)c1COC(=O)CNS(=O)(=O)c1ccc(C)c(C)c1 | 1.64 µM [rising, partial curve, poor fit] | –
C=CCn1c(SCC(=O)Nc2nncs2)nnc1-c1ccco1 | 2.82 µM [rising, partial curve, poor fit] | –
CCc1nc2ccccc2c(C(=O)OCC(=O)Nc2ccc(S(=O)(=O)N3CCOCC3)cc2)c1C | 12.6 µM [falling, partial curve, poor fit] | –
O=C(Nc1ccccc1)c1ccc2nsnc2c1 | 11.2 µM [falling, partial curve] | –
CCCn1c(=O)c2[nH]c(C3CCCC3)nc2n(CCC)c1=O | – | 0.126 µM [rising, full curve, poor fit]
CCOC(=O)N1CCC(NC(=O)c2cccc3c2C(=O)N(CCOC)C3)CC1 | 6.51 µM [falling, single point] | –
COc1cccc(N2C(=O)C(Cc3c[nH]c4ccccc34)NC2=S)c1 (stereo unspecified) | 23.1 µM [falling, single point] | –
COc1ccc(C(=O)COC(=O)CCn2nnc(-c3cccs3)n2)cc1 | 8.2 µM [rising, partial curve] | –
C/C(=N\NS(=O)(=O)c1cccc([N+](=O)[O-])c1)c1cc2ccccc2o1 | 20.6 µM [falling, single point] | –
